## Primary screen of a compound library

Measurements from “University of Dundee, Small-Polar-MMV Screening Library” (2021), ChEMBL document CHEMBL3988442.

A: 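Growth of Mycobacterium tuberculosis over 3 days (7H9 medium with glucose and tyloxapol); the read-out is not stated. Tested at 50 µM. Direction is inferred from retests: higher values go with more growth inhibition. About 69,000 compounds were tested under these conditions; 1.1% (about 760) showed 50% or more at least once.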
B: 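Whole-cell growth test on Mycobacterium tuberculosis, read after 4 days in a medium based on cholesterol and the lipid DPPC; the read-out is not stated. Compounds at 50 µM. The record gives no direction; compounds that gave an IC50 in retests scored well above the rest, so higher reads as more growth inhibition. Of about 69,000 compounds tested this way, about 370 (0.54%) reached 50% or more in at least one test.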

Results are given as percent effect.
The controls that fix the scale are not given in the record; negative values are as filed.
The compounds are a random part of those screened.
Two or more numbers in one place are separate tests of the same structure; such repeats can differ widely.

- Cc1nnc2n1CCN(C(C(=O)NC(C)C)c1ccccc1)C2 (centres unmarked) : A: -15.57%; B: -16.45%
- Cc1nc(NC2CCCC2)cc(C2CCN2C(=O)c2ccccc2)n1 (centres unmarked) : A: 34.33%; B: -1.613%
- Cc1ccc2c(n1)N(C)CCN(CCN1CCCC1)C2.O=C(O)C(F)(F)F.O=C(O)C(F)(F)F.O=C(O)C(F)(F)F : A: -1.082% & -2.743%; B: 7.724%
- CNS(=O)(=O)c1cc(C)c2[nH]c(=O)cc(C)c2c1 : A: -1.132%; B: 7.633%
- COCCN1CCC(CNC(=O)C2(c3cc(C)cc(C)c3)CCC2)C1 (centres unmarked) : A: 11.33%; B: -13.91%
- CCN(C(=O)CS(=O)(=O)Cc1cc(Cl)c2c(c1)OCCCO2)C1CC1 : A: 0.9885%; B: 0.8085%
- CN(C)c1cc2c(nn1)CCN(C(=O)c1cc3c(s1)CCOC3)C2 : A: -14.56%; B: 6.751%
- CC(C)NC(=O)CC1COC2(CCN(Cc3ccco3)CC2)C1 (centres unmarked) : A: 1.853%; B: -13% & -8.006%
- COCCOC[C@]1(CNCc2cccc(OC)c2)C[C@@H](O)[C@@H](O)C1.Cl : A: -18.26% & 0.5702%; B: 11.3%
- CCc1nc2n(n1)CC(Nc1ccnc(-c3ccccc3)n1)CC2 (centres unmarked) : A: 33.23%; B: 4.743%
- Cc1ccc(F)cc1S(=O)(=O)NCc1[nH]ncc1Br : A: 36.56%; B: 16.09%
- NCCSc1nccc(-c2cnc(C3CC3)nc2-c2ccco2)n1 : A: 22.06%; B: -11.89%
- O=C(CC1CNCCO1)N1CCC(c2cc(N3CCCC3)ncn2)CC1 (centres unmarked) : A: -10.05%; B: 9.977% & -7.94%
- Cc1ccccc1CN1CCC[C@H]1c1nc(-c2cncnc2N)no1 : A: -35.06% & 6.326%; B: -24.38%
- N#Cc1cnc(NC2CCN(C(=O)C3CCCCC3)CC2)c(Cl)c1 : A: 7.62%; B: -5.899%
- O=C(NCC1CCCN1CCc1ccccc1)NCC1(O)CCC1 (centres unmarked) : A: -6.203%; B: -3.205%
- c1cnnc(N2CCCC2CNc2cnc3ccccc3n2)c1 (centres unmarked) : A: -12.08%; B: -11.33%
- O=C(O)C(F)(F)F.[H][C@]12CCCC(OCc3cccnc3)[C@@]1([H])CN(C(=O)COC)C2 (some centres unmarked) : A: -6.864% & -30.09%; B: -20.53%
- [H][C@]12CC[C@](O)(CC1)C(COC)N2C(=O)c1ccco1 (some centres unmarked) : A: 8.384%; B: -7.168%
- Cc1ccc(CN(CCCN(C)C)Cc2cnc(C)n2C)o1.O=C(O)CC(O)(CC(=O)O)C(=O)O : A: 20.7%; B: 1.852%
- Cc1noc(CN2CCN(c3cncc(Cl)n3)CC2)n1 : A: -13.62%; B: -22.77%
- O=C(O)c1csc(S(=O)(=O)N2CCCc3ccc(F)cc32)c1 : A: -8.793%; B: -1.541%
- CCCN(Cc1cccc(OCCO)c1)Cc1ccccc1OC : A: -25.64%; B: 4.787%
- CC(CNC(=O)CCc1ccccn1)c1ccsc1 (centres unmarked) : A: 9.56% & 10.46%; B: 6.422%
- COc1ccc(NC(=O)C2OC(c3cccs3)=NN2C(C)=O)cc1OC (centres unmarked) : A: -4.621%; B: -10.55%
- COCCn1ccc(NC(=O)CNC(=O)CC(C)(C)C)n1 : A: 11.11%; B: -18.35%
- CN1C[C@@H](C(=O)NCC(F)(F)F)[C@@]2(CCc3ccccc3C(=O)N2)C1 : A: 25.09%; B: 8.104%
- O=C(NCC(O)c1cccs1)c1sccc1OC(F)F (centres unmarked) : A: 14.82%; B: 12.56%
- [H][C@@]12COC[C@]1([H])[C@@H](OCCN(C)C)CN2C(=O)c1ccc2c(c1)OCO2 : A: -1.787% & -31.21%; B: 0.8179%
- CC(C)c1ccc(S(=O)(=O)NC2CCN(CC(F)(F)F)C2)cc1 (centres unmarked) : A: -24.75% & 9.197%; B: -15.71%
- Cc1cc(C[S+]([O-])CC(=O)NCc2cccc(Cl)c2)no1 (centres unmarked) : A: 3.879%; B: 0.03275%
- CCOc1cc(C(=O)n2cc(C)cn2)cc(OCC)c1OCC : A: 53.32% & 7.731%; B: 8.053%
- Cn1nc2c(cc1=O)CN(Cc1nc(-c3ccccn3)no1)CC2 : A: 15.55%; B: -2.572%
- O=C(c1cccc2c1OCO2)N1CCCC(n2ccnc2)C1 (centres unmarked) : A: 6.673%; B: 19.93%
- COCC(c1cccc(C(F)(F)F)c1)N(C)C(=O)c1cccnc1 (centres unmarked) : A: 0.6188%; B: -1.515%
- Cc1ccc(NC(=O)N2CC[C@@H](O)C2)c(-c2nc(C3CC3)no2)c1 : A: 14.23%; B: 9.5%
- CN(C)CCCNCCC(Cc1ccccc1)C1CCOC(C)(C)C1.O=C(O)C(=O)O (centres unmarked) : A: 15.11% & 8.084%; B: -18.53%
- Cc1cc(C(=O)N2CCN(C(=O)Cc3ccccn3)CC2)c(C)s1 : A: -3.971%; B: -5.504%
- CC(C)(C)C(=O)N1CCCC1c1cc(CO)[nH]n1 (centres unmarked) : A: -19.2%; B: -6.63% & 12.15%
- CS(=O)(=O)N1CCCC(Cc2ccnc(Nc3ccccn3)c2)C1 (centres unmarked) : A: -0.6826%; B: -0.1596% & 3.303%
- O=C(O)C(F)(F)F.[H][C@]12CN(c3ncc(C)cn3)C[C@@]1(C(=O)O)CCCN(C1CCOC1)C2 (some centres unmarked) : A: -0.8419%; B: -10.16%
- CC(O)c1cn(C2CCN(C(=O)C3(C)CCCCC3)CC2)nn1 (centres unmarked) : A: -1.633% & -61.65%; B: -12%
- CCCS(=O)(=O)NCc1cccnc1OCC : A: 2.906%; B: -20.55%